Measured values reported in EP0980535B1, “PHOTOCHROMIC COMPOSITIONS, PHOTOCHROMIC COMPOUNDS (CO)POLYMER MATRICES” (Corning S.A., priority 1997, dated 1998).
At least one read-out could not be matched to a standard name with certainty.

Assay: Photochromic properties of the compound in the (co)polymer matrix under xenon lamp exposure
Assay type: physicochemical
Details: for half-time of fading : t1/2: kinetics of the return to the initial state after darkening (Example section list)
Protocol: The matrix is based on a short-chain (meth)acrylate difunctional monomer and a long-chain alkenic difunctional monomer. Used at 0.05% by weight within the matrix (conditioned under 2 mm thickness), the compound has led to the results shown in the Table below.
Compounds C1, C2, C3, other naphthopyrans according to the application WO-A-94 22850, are identified by their developed formula in the Example part of the text. All compounds (II), C1, C2, C3 were tested under the same conditions as those indicated above with reference to compound (I).
The half-time of fading : t1/2, expressed in seconds is specified below for each one of the compounds. This parameter characterizes the kinetics of the return to the initial state (after darkening)(see its exact definition given earlier in the present text with reference to the Table grouping the properties of compound (I)).

## COc1ccc(C2(c3ccccc3)C=Cc3c(cc(N4CCOCC4)c4ccccc34)O2)cc1 (stereo not shown) [Compound (II), 3-(p-methoxyphenyl)-3-phenyl-6-morpholino-3H-naphtho-[2,1-b]pyran]
half-time of fading, same conditions as compound (I)
  t1/2: 1.47 min
  half-time of fading : t1/2: 1.47 min

## COc1ccc(C2(c3ccc(N(C)C)cc3)C=Cc3c(C)cc4c(OC)cc(OC)cc4c3O2)cc1 (stereo not shown) [Compound (I), 2-(p-dimethylaminophenyl)-2-(p-methoxyphenyl)-5-methyl-7,9-dimethoxy-[2H]-naphtho[1,2-b]pyran]
half-time of fading after 15 minutes' exposure, 0.05% by weight in matrix, 2 mm
  t½***: 2.12 min
  half-time of fading : t1/2: 2.12 min
